Some of these results come from one statement about several compounds together. Some compounds share one range, which may span the group rather than tell each member.
Tests used:
[1] = tested on: harmful plants ALOMY, ECHCG, SETVI, AMARE, POLCO, STEME and VIOTR; assay: Herbicidal pre-emergence action (greenhouse pot test); type: in vivo; settings: pre-emergence method, 320 g of active substance per hectare; against several, in particular three or more, of the mentioned harmful plants
[2] = tested on: harmful plants ECHCG, SETVI, ABUTH, AMARE, PHBPU, POLCO, STEME, and VIOTR; assay: Herbicidal post-emergence action (greenhouse pot test); type: in vivo; settings: post-emergence method, 320 g of active substance per hectare; against several, in particular three or more, of the mentioned harmful plants

`O=C(CF)Nc1nsc2c(=O)n(CC3CCCCC3)ccc12` [II-77] was tested, and the excellent activity [1] was 90-100% and the excellent activity [2] was 90-100%.

From patent US20200317690A1, “NOVEL ISOTHIAZOLOPYRIDONES, PROCESSES FOR THEIR PREPARATION AND THEIR USE AS HERBICIDES AND/OR PLANT GROWTH REGULATORS” (Bayer CropScience Aktiengesellschaft, priority 2016, published 2020)
